# Experimental data: article PMC8201222
# Amino acid sequences for entries named in this document (tags omitted).
# UniProt P19338: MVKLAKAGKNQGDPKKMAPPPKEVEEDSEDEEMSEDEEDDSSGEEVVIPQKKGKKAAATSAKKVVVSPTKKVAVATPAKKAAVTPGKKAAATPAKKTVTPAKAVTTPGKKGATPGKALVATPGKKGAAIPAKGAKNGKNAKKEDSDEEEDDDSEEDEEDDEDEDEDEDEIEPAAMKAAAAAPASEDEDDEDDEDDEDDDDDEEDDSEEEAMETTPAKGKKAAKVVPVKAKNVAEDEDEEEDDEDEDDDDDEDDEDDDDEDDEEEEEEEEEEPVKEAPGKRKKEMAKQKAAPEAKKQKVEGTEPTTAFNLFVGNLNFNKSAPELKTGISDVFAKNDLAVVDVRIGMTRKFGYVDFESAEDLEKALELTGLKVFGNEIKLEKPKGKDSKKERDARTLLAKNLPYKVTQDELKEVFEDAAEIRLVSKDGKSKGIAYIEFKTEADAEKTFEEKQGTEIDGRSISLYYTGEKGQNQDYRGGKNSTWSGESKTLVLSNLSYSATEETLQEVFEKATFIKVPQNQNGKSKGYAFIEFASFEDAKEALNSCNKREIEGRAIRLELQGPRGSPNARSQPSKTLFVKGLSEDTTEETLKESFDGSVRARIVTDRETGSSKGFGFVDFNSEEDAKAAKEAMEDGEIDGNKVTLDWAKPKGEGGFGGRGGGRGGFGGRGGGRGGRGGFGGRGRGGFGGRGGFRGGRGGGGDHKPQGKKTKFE
# Results are given in words; binding and its absence hold for the method and conditions named. In cells and extracts the contact can be indirect. Some binding calls cover weakened binding; strength is not graded here.
# B1: Astrocyte elevated gene-1 (AEG-1), endogenous (protein, UniProt Q86UE4 1-582)
# chain: MAARSWQDELAQQAEEGSARLREMLSVGLGFLRTELGLDLGLEPKRYPGWVILVGTGALGLLLLFLLGYGWAAACAGARKKRRSPPRKREEAAAVPAAAPDDLALLKNLRSEEQKKKNRKKLSEKPKPNGRTVEVAEGEAVRTPQSVTAKQPPEIDKKNEKSKKNKKKSKSDAKAVQNSSRHDGKEVDEGAWETKISHREKRQQRKRDKVLTDSGSLDSTIPGIENTITVTTEQLTTASFPVGSKKNKGDSHLNVQVSNFKSGKGDSTLQVSSGLNENLTVNGGGWNEKSVKLSSQISAGEEKWNSVSPASAGKRKTEPSAWSQDTGDANTNGKDWGRSWSDRSIFSGIGSTAEPVSQSTTSDYQWDVSRNQPYIDDEWSGLNGLSSADPNSDWNAPAEEWGNWVDEERASLLKSQEPIPDDQKVSDDDKEKGEGALPTGKSKKKKKKKKKQGEDNSTAQDTEELEKEIREDLPVNTSKTRPKQEKAFSLKTISTSDPAEVLVKNSQPIKTLPPATSTEPSVILSKSDSDKSSSQVPPILQETDKSKSNTKQNSVPPSQTKSETSWESPKQIKKKKKARRET
# Target: nucleolin (NCL), endogenous (human (endogenous in 293T, HeLa, BT549, MCF-7, MDA-MB-231)) (UniProt P19338)
# Assay: co-IP; endogenous NCL immunoprecipitated with anti-NCL antibodies from lysates of 293T, BT549, MCF-7 and MDA-MB-231 cells, 4 °C overnight; co-immunoprecipitated endogenous AEG-1 detected by western blot
binder,measurement,value
B1,binding,binds
